PubChem BioAssay AID1259254 | NCATS – 2017
Here is a random part of about 59,000 reagents tested. Over the whole deposit, about 1,550 (2.6%) are marked active. 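G2 share is only a proxy for re-replication; each gene was hit by three separate siRNAs, and active genes were retested.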 The raw values are shown without normalisation. A number with no mark means an inactive call. The numbers tell different reagents against one gene apart. The record does not give: the amount of reagent.

Purpose: 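Genome-wide screen for genes that prevent DNA re-replication in cancer cells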 (primary screen)
System: human HCT116 colorectal cancer cells
Knock-down reagent: single siRNA against human genes
Time to read-out: 3 days
Measured: 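Nuclei stained with Hoechst and imaged; cell-cycle phase assigned by DNA content; G2 share scaled per plate, non-targeting siRNA 0%, GMNN siRNA 100%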
Direction: G2 robust z-score and G2 cells, % of GMNN control: higher = more G2 cells, more excess DNA replication; raw share of cells in G2: higher = larger share of cells with G2 DNA content
Hit rule: 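An siRNA counts as active if its G2 robust z-score lies at least 5 MADs above the screen median; here such calls match roughly 38% of GMNN control or more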

The opening 2 entries, ahead of the listing:
| Target gene | reagent no. | G2 robust z-score | G2 cells, % of GMNN control | raw share of cells in G2 (%) |
| --- | --- | --- | --- | --- |
| ANKRD40 | 1 | -0.368 | 0.382 | 4.25 |
| ANKRD40 | 2 | 0.892 | 9.24 | 5.9 |

Results, repeating the preview:
| Target gene | reagent no. | G2 robust z-score | G2 cells, % of GMNN control | raw share of cells in G2 (%) |
| --- | --- | --- | --- | --- |
| ANKRD40 | 1 | -0.368 | 0.382 | 4.25 |
| ANKRD40 | 2 | 0.892 | 9.24 | 5.9 |
| ANKRD40 | 3 | -0.563 | -0.996 | 2.61 |
| FGFRL1 | 1 | -0.676 | -1.79 | 5.03 |
| FGFRL1 | 2 | -0.395 | 0.186 | 5.26 |
| FGFRL1 | 3 | 2.15 | 18.1 | 9.48 |
| ROPN1B | 1 | 1.68 | 14.8 | 8.78 |
| ROPN1B | 2 | -1.1 | -4.77 | 1.44 |
| ROPN1B | 3 | -0.277 | 1.02 | 3.42 |
| PIDD1 | 1 | 1.87 | 16.1 | 8.28 |
| PIDD1 | 2 | 0.187 | 4.28 | 6.17 |
| PIDD1 | 3 | -0.00339 | 2.94 | 5.36 |
| GJA4 | 1 | -0.32 | 0.715 | 5.18 |
| GJA4 | 2 | -0.159 | 1.85 | 4.2 |
| GJA4 | 3 | -0.35 | 0.505 | 3.29 |
| GMPPB | 1 | 1.68 | 14.8 | 12.9 |
| GMPPB | 2 | 0.907 | 9.35 | 7.29 |
| GMPPB | 3 | -0.867 | -3.13 | 2.96 |
| APOD | 1 | 0.19 | 4.3 | 6.18 |
| APOD | 2 | -0.506 | -0.595 | 4.86 |
| APOD | 3 | -1.14 | -5.07 | 2.1 |
| ZFP82 | 1 | -0.443 | -0.152 | 3.04 |
| ZFP82 | 2 | 0.777 | 8.44 | 6.09 |
| ZFP82 | 3 | 1.29 | 12 | 7.74 |
| TMEM258 | 1 | -0.374 | 0.335 | 5.46 |
| TMEM258 | 2 | 0.0577 | 3.37 | 5.32 |
| TMEM258 | 3 | -0.896 | -3.34 | 2.22 |
| LINC00607 | 1 | 0.383 | 5.66 | 5.91 |
| LINC00607 | 2 | -0.396 | 0.18 | 3.29 |
| LINC00607 | 3 | -0.963 | -3.81 | 1.83 |
